Test results reported in US20060287510A1 (Genentech, published 2006).
No constants are given. Whether binding was seen depends on the method and setting. Some binding calls cover weakened binding; strength is not graded here.

Chains of the proteins cited; added tags and fusions are not shown. Lines headed by an entry give the natural chain unless they say otherwise; changes in a name come on top. Residues count along the entry.
UniProt P05019: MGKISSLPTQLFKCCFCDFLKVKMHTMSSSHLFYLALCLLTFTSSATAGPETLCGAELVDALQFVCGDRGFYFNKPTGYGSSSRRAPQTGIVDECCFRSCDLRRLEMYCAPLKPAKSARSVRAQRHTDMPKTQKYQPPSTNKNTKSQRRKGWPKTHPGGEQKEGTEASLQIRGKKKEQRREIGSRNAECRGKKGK
UniProt P17936, residues 28-291: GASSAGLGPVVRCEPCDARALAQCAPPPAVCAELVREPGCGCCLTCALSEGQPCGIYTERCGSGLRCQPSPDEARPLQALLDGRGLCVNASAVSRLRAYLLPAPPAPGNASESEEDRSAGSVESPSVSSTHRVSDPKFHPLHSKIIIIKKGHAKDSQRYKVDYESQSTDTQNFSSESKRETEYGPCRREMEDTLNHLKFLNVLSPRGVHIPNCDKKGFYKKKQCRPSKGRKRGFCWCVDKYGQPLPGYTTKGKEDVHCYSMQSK

B1: IGFBP-1 (protein, UniProt P08833 26-259, looked up)
chain: APWQCAPCSAEKLALCPPVSASCSEVTRSAGCGCCPMCALPLGAACGVATARCARGLSCRALPGEQQPLHALTRGQGACVQESDASAPHAAEAGSPESPESTEITEEELLDNFHLMAPSEEDHSILWDAISTYDGSKALHVTNIKKWKEPCRIELYRVVESLAKAQETSGEEISKFYLPNCNKNGFYHSRQCETSMDGEAGLCWCVYPWNGKRIPGSPEIRGDPNCQIYFNVQN

Key:
[1] = target: human IGF-1 displayed on bacteriophage particles (phage vector pIGF-g3) (human) (UniProt P05019); assay: competition phage ELISA: IGF-1 phage preincubated with soluble IGFBP-3, residual binding to immobilized IGFBP-3 read at OD450
[2] = target: human IGF-1 displayed on bacteriophage particles (phage vector pIGF-g3) (human) (UniProt P05019); assay: competition phage ELISA: IGF-1 phage preincubated with soluble IGFBP-1, residual binding to immobilized IGFBP-1 read at OD450

Molecule	binding [1]	binding [2]
IGFBP-3 (from UniProt P17936 28-291)	binds	
B1		binds
